Laboratory results as given in the supplement of paper PMC8728848.
This is one part of the list.

Columns and labels:
Test in all cases: glycan array binding signal (z-score within array); higher = stronger binding
Conditions in all cases: glycan notation: IUPAC condensed, linker removed
[1] = target: Fuc(a1-2)Gal(b1-4)[Fuc(a1-3)]GlcNAc
Outline: (§1)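 The binding signal is a Z-score computed within each array and averaged over linkers. Arrays of the same protein sequence at different concentrations or buffers were also averaged together. Data originate from 3228 arrays in the Consortium for Functional Glycomics database, kept only where the protein sequence was available.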

[2] = target: Fuc(a1-2)Gal(b1-4)[Fuc(a1-3)]GlcNAc(b1-2)Man(a1-3)[Fuc(a1-2)Gal(b1-4)[Fuc(a1-3)]GlcNAc(b1-2)Man(a1-6)]Man(b1-4)GlcNAc(b1-4)[Fuc(a1-6)]GlcNAc
Outline: as §1

[3] = target: Fuc(a1-2)Gal(b1-4)[Fuc(a1-3)]GlcNAc(b1-2)[Fuc(a1-2)Gal(b1-4)[Fuc(a1-3)]GlcNAc(b1-4)]Man(a1-3)[Fuc(a1-2)Gal(b1-4)[Fuc(a1-3)]GlcNAc(b1-2)Man(a1-6)]Man(b1-4)GlcNAc(b1-4)GlcNAc
Outline: as §1

[4] = target: Fuc(a1-2)Gal(b1-4)[Fuc(a1-3)]GlcNAc(b1-3)Gal(b1-4)[Fuc(a1-3)]GlcNAc
Outline: as §1

[5] = target: Fuc(a1-2)Gal(b1-4)[Fuc(a1-3)]GlcNAc(b1-3)Gal(b1-4)[Fuc(a1-3)]GlcNAc(b1-3)Gal(b1-4)[Fuc(a1-3)]GlcNAc
Outline: as §1

[6] = target: Fuc(a1-2)Gal(b1-4)[Fuc(a1-3)]GlcNAc(b1-3)GalNAc
Outline: as §1

[7] = target: Fuc(a1-2)Gal(b1-4)[Fuc(a1-3)]GlcNAc(b1-3)[Neu5Ac(a2-6)Gal(b1-4)GlcNAc(b1-6)]Gal(b1-4)Glc
Outline: as §1

[8] = target: Fuc(a1-2)Gal3S(b1-4)GlcNAc
Outline: as §1

[9] = target: Fuc(a1-2)Gal6S(b1-3)GlcNAc
Outline: as §1

[10] = target: Fuc(a1-2)Gal6S(b1-3)GlcNAc6S
Outline: as §1

Fuc(a1-2)Gal6S(b1-4)Glc = target: Fuc(a1-2)Gal6S(b1-4)Glc
Outline: as §1

[11] = target: Fuc(a1-2)Gal6S(b1-4)Glc6S
Outline: as §1

Fuc(a1-2)[Gal(a1-3)]Gal = target: Fuc(a1-2)[Gal(a1-3)]Gal
Outline: as §1

[12] = target: Fuc(a1-2)[Gal(a1-3)]Gal(b1-3)GalNAc
Outline: as §1

[13] = target: Fuc(a1-2)[Gal(a1-3)]Gal(b1-3)GalNAc(b1-3)Gal(a1-4)Gal(b1-4)Glc
Outline: as §1

[14] = target: Fuc(a1-2)[Gal(a1-3)]Gal(b1-3)GlcNAc
Outline: as §1

[15] = target: Fuc(a1-2)[Gal(a1-3)]Gal(b1-3)GlcNAc(b1-2)Man(a1-3)[Fuc(a1-2)[Gal(a1-3)]Gal(b1-3)GlcNAc(b1-2)Man(a1-6)]Man(b1-4)GlcNAc(b1-4)GlcNAc
Outline: as §1

[16] = target: Fuc(a1-2)[Gal(a1-3)]Gal(b1-3)GlcNAc(b1-2)Man(a1-3)[Fuc(a1-2)[Gal(a1-3)]Gal(b1-3)GlcNAc(b1-2)Man(a1-6)]Man(b1-4)GlcNAc(b1-4)[Fuc(a1-6)]GlcNAc
Outline: as §1

[17] = target: Fuc(a1-2)[Gal(a1-3)]Gal(b1-3)GlcNAc(b1-3)GalNAc
Outline: as §1

[18] = target: Fuc(a1-2)[Gal(a1-3)]Gal(b1-3)GlcNAc(b1-6)GalNAc
Outline: as §1

[19] = target: Fuc(a1-2)[Gal(a1-3)]Gal(b1-4)Glc
Outline: as §1

[20] = target: Fuc(a1-2)[Gal(a1-3)]Gal(b1-4)GlcNAc
Outline: as §1

[21] = target: Fuc(a1-2)[Gal(a1-3)]Gal(b1-4)GlcNAc(b1-2)Man
Outline: as §1

[22] = target: Fuc(a1-2)[Gal(a1-3)]Gal(b1-4)GlcNAc(b1-2)Man(a1-3)[Fuc(a1-2)[Gal(a1-3)]Gal(b1-4)GlcNAc(b1-2)Man(a1-6)]Man(b1-4)GlcNAc(b1-4)GlcNAc
Outline: as §1

[23] = target: Fuc(a1-2)[Gal(a1-3)]Gal(b1-4)GlcNAc(b1-2)Man(a1-3)[Fuc(a1-2)[Gal(a1-3)]Gal(b1-4)GlcNAc(b1-2)Man(a1-6)]Man(b1-4)GlcNAc(b1-4)[Fuc(a1-6)]GlcNAc
Outline: as §1

[24] = target: Fuc(a1-2)[Gal(a1-3)]Gal(b1-4)GlcNAc(b1-3)GalNAc
Outline: as §1

[25] = target: Fuc(a1-2)[Gal(a1-3)]Gal(b1-4)GlcNAc(b1-3)[Fuc(a1-2)[Gal(a1-3)]Gal(b1-4)GlcNAc(b1-6)]GalNAc
Outline: as §1

[26] = target: Fuc(a1-2)[Gal(a1-3)]Gal(b1-4)GlcNAc(b1-6)GalNAc
Outline: as §1

[27] = target: Fuc(a1-2)[Gal(a1-3)]Gal(b1-4)[Fuc(a1-3)]Glc
Outline: as §1

[28] = target: Fuc(a1-2)[Gal(a1-3)]Gal(b1-4)[Fuc(a1-3)]GlcNAc
Outline: as §1

[29] = target: Fuc(a1-2)[Gal(a1-3)]Gal(b1-4)[Fuc(a1-3)]GlcNAc(b1-3)GalNAc
Outline: as §1

[30] = target: Fuc(a1-2)[Gal(a1-4)]Gal(b1-4)GlcNAc
Outline: as §1

[31] = target: Fuc(a1-2)[GalNAc(a1-3)]Gal
Outline: as §1

[32] = target: Fuc(a1-2)[GalNAc(a1-3)]Gal(b1-3)GalNAc(a1-3)[Fuc(a1-2)]Gal(b1-4)GlcNAc
Outline: as §1

[33] = target: Fuc(a1-2)[GalNAc(a1-3)]Gal(b1-3)GalNAc(b1-3)Gal(a1-4)Gal(b1-4)Glc
Outline: as §1

[34] = target: Fuc(a1-2)[GalNAc(a1-3)]Gal(b1-3)GlcNAc
Outline: as §1

[35] = target: Fuc(a1-2)[GalNAc(a1-3)]Gal(b1-3)GlcNAc(b1-2)Man(a1-3)[Fuc(a1-2)[GalNAc(a1-3)]Gal(b1-3)GlcNAc(b1-2)Man(a1-6)]Man(b1-4)GlcNAc(b1-4)GlcNAc
Outline: as §1

[36] = target: Fuc(a1-2)[GalNAc(a1-3)]Gal(b1-3)GlcNAc(b1-2)Man(a1-3)[Fuc(a1-2)[GalNAc(a1-3)]Gal(b1-3)GlcNAc(b1-2)Man(a1-6)]Man(b1-4)GlcNAc(b1-4)[Fuc(a1-6)]GlcNAc
Outline: as §1

B1: MUB70 (Lactobacillus reuteri) (protein)
chain: CVHVQYIDGETDQMLRQDDLDGYTDETIPYSTAEGIKKFEGDGYELFKDNFPAGEKFDNDDTNDQFYTVIF
glycan array binding signal (z-score) [1]: -0.411
glycan array binding signal (z-score) [2]: -0.091
glycan array binding signal (z-score) [3]: 0.195
glycan array binding signal (z-score) [4]: -0.087
glycan array binding signal (z-score) [5]: 0.074
glycan array binding signal (z-score) [6]: -0.248
glycan array binding signal (z-score) [7]: -0.014
glycan array binding signal (z-score) [8]: 0.054
glycan array binding signal (z-score) [9]: 0.647
glycan array binding signal (z-score) [10]: 2.39
glycan array binding signal (z-score) (Fuc(a1-2)Gal6S(b1-4)Glc): 0.562
glycan array binding signal (z-score) [11]: 1.07
glycan array binding signal (z-score) (Fuc(a1-2)[Gal(a1-3)]Gal): -0.393
glycan array binding signal (z-score) [12]: 0.507
glycan array binding signal (z-score) [13]: 0.567
glycan array binding signal (z-score) [14]: 1.39
glycan array binding signal (z-score) [15]: -0.388
glycan array binding signal (z-score) [16]: -0.317
glycan array binding signal (z-score) [17]: -0.352
glycan array binding signal (z-score) [18]: 0.035
glycan array binding signal (z-score) [19]: 0.345
glycan array binding signal (z-score) [20]: 0.671
glycan array binding signal (z-score) [21]: 0.658
glycan array binding signal (z-score) [22]: -0.278
glycan array binding signal (z-score) [23]: -0.624
glycan array binding signal (z-score) [24]: -0.384
glycan array binding signal (z-score) [25]: -0.379
glycan array binding signal (z-score) [26]: -0.784
glycan array binding signal (z-score) [27]: 0.409
glycan array binding signal (z-score) [28]: 0.047
glycan array binding signal (z-score) [29]: -0.291
glycan array binding signal (z-score) [30]: 0.099
glycan array binding signal (z-score) [31]: -0.491
glycan array binding signal (z-score) [32]: -0.674
glycan array binding signal (z-score) [33]: 0.76
glycan array binding signal (z-score) [34]: -0.003
glycan array binding signal (z-score) [35]: -0.62
glycan array binding signal (z-score) [36]: 0.065
